# Patent US10538535B2, “Antitumoral compounds” (priority 2017, dated 2020)
# The name of at least one read-out is uncertain.
# System: HT1080 tumors
# Experiment: In vivo xenograft, human fibrosarcoma HT1080
smiles,measurement,setting,value
COc1c(C)cc2c(c1O)[C@@H]1[C@@H]3[C@@H]4SC[C@]5(N[C@H](C)Cc6c5[nH]c5ccccc65)C(=O)OC[C@@H](c5c6c(c(C)c(OC(C)=O)c54)OCO6)N3[C@@H](O)[C@H](C2)N1C [C],Total diameter (tumor + leg),"Table 46, Day 2, iv weekly, 39-S […], C 3 mg/Kg",8.8 mm
same,Total diameter (tumor + leg),"Table 46, Day 5, iv weekly, 39-S […], C 3 mg/Kg",9.0 mm
same,Total diameter (tumor + leg),"Table 46, Day 7, iv weekly, 39-S […], C 3 mg/Kg",9.6 mm
same,Total diameter (tumor + leg),"Table 46, Day 9, iv weekly, 39-S […], C 3 mg/Kg",10.2 mm
same,Total diameter (tumor + leg),"Table 46, Day 12, iv weekly, 39-S […], C 3 mg/Kg",10.2 mm
same,Total diameter (tumor + leg),"Table 46, Day 14, iv weekly, 39-S […], C 3 mg/Kg",11.2 mm
same,Total diameter (tumor + leg),"Table 46, Day 16, iv weekly, 39-S […], C 3 mg/Kg",12.4 mm
same,Total diameter (tumor + leg),"Table 46, Day 19, iv weekly, 39-S […], C 3 mg/Kg",13.3 mm
same,Total diameter (tumor + leg),"Table 46, Day 21, iv weekly, 39-S […], C 3 mg/Kg",15.2 mm
same,Total diameter (tumor + leg),"Table 46, Day 23, iv weekly, 39-S […], C 3 mg/Kg",18.0 mm
COc1c(C)cc2c(c1O)[C@@H]1[C@@H]3[C@@H]4SC[C@]5(N[C@@H](C)Cc6c5[nH]c5ccccc65)C(=O)OC[C@@H](c5c6c(c(C)c(OC(C)=O)c54)OCO6)N3[C@@H](O)[C@H](C2)N1C [D],Total diameter (tumor + leg),"Table 20, Day 2, iv Days 0, 7, 14",9.5 mm
same,Total diameter (tumor + leg),"Table 20, Day 5, iv Days 0, 7, 14",8.8 mm
same,Total diameter (tumor + leg),"Table 20, Day 7, iv Days 0, 7, 14",8.7 mm
same,Total diameter (tumor + leg),"Table 20, Day 9, iv Days 0, 7, 14",9.4 mm
same,Total diameter (tumor + leg),"Table 20, Day 12, iv Days 0, 7, 14",9.4 mm
same,Total diameter (tumor + leg),"Table 20, Day 14, iv Days 0, 7, 14",10.1 mm
same,Total diameter (tumor + leg),"Table 20, Day 16, iv Days 0, 7, 14",10.9 mm
same,Total diameter (tumor + leg),"Table 20, Day 21, iv Days 0, 7, 14",12.1 mm
same,Total diameter (tumor + leg),"Table 20, Day 23, iv Days 0, 7, 14",13.0 mm
same,Total diameter (tumor + leg),"Table 20, Day 26, iv Days 0, 7, 14",15.0 mm
same,Total diameter (tumor + leg),"Table 20, Day 28, iv Days 0, 7, 14",18.0 mm
same,Total diameter (tumor + leg),"Table 29, Day 2.0, iv Days 0, 7, 14, 12-R 0.05 mg/kg, Compound D 0.5 mg/kg",8.2 mm
same,Total diameter (tumor + leg),"Table 29, Day 5.0, iv Days 0, 7, 14, 12-R 0.05 mg/kg, Compound D 0.5 mg/kg",7.5 mm
same,Total diameter (tumor + leg),"Table 29, Day 7.0, iv Days 0, 7, 14, 12-R 0.05 mg/kg, Compound D 0.5 mg/kg",7.4 mm
same,Total diameter (tumor + leg),"Table 29, Day 9.0, iv Days 0, 7, 14, 12-R 0.05 mg/kg, Compound D 0.5 mg/kg",8.1 mm
same,Total diameter (tumor + leg),"Table 29, Day 12.0, iv Days 0, 7, 14, 12-R 0.05 mg/kg, Compound D 0.5 mg/kg",7.9 mm
same,Total diameter (tumor + leg),"Table 29, Day 14.0, iv Days 0, 7, 14, 12-R 0.05 mg/kg, Compound D 0.5 mg/kg",7.7 mm
same,Total diameter (tumor + leg),"Table 29, Day 16.0, iv Days 0, 7, 14, 12-R 0.05 mg/kg, Compound D 0.5 mg/kg",8.8 mm
same,Total diameter (tumor + leg),"Table 29, Day 19.0, iv Days 0, 7, 14, 12-R 0.05 mg/kg, Compound D 0.5 mg/kg",10.2 mm
same,Total diameter (tumor + leg),"Table 29, Day 21.0, iv Days 0, 7, 14, 12-R 0.05 mg/kg, Compound D 0.5 mg/kg",11.2 mm
same,Total diameter (tumor + leg),"Table 29, Day 27.0, iv Days 0, 7, 14, 12-R 0.05 mg/kg, Compound D 0.5 mg/kg",13.2 mm
same,Total diameter (tumor + leg),"Table 29, Day 30.0, iv Days 0, 7, 14, 12-R 0.05 mg/kg, Compound D 0.5 mg/kg",14.6 mm
same,Total diameter (tumor + leg),"Table 29, Day 33.0, iv Days 0, 7, 14, 12-R 0.05 mg/kg, Compound D 0.5 mg/kg",16.3 mm
same,Total diameter (tumor + leg),"Table 29, Day 35.0, iv Days 0, 7, 14, 12-R 0.05 mg/kg, Compound D 0.5 mg/kg",18.0 mm
same,Total diameter (tumor + leg),"Table 53, Day 2, iv weekly, 47-R 0.1 mg/Kg, Compound D 0.5 mg/Kg",8.2 mm
same,Total diameter (tumor + leg),"Table 53, Day 5, iv weekly, 47-R 0.1 mg/Kg, Compound D 0.5 mg/Kg",7.5 mm
same,Total diameter (tumor + leg),"Table 53, Day 7, iv weekly, 47-R 0.1 mg/Kg, Compound D 0.5 mg/Kg",7.4 mm
same,Total diameter (tumor + leg),"Table 53, Day 9, iv weekly, 47-R 0.1 mg/Kg, Compound D 0.5 mg/Kg",8.1 mm
same,Total diameter (tumor + leg),"Table 53, Day 12, iv weekly, 47-R 0.1 mg/Kg, Compound D 0.5 mg/Kg",7.9 mm
same,Total diameter (tumor + leg),"Table 53, Day 14, iv weekly, 47-R 0.1 mg/Kg, Compound D 0.5 mg/Kg",7.7 mm
same,Total diameter (tumor + leg),"Table 53, Day 16, iv weekly, 47-R 0.1 mg/Kg, Compound D 0.5 mg/Kg",8.8 mm
same,Total diameter (tumor + leg),"Table 53, Day 19, iv weekly, 47-R 0.1 mg/Kg, Compound D 0.5 mg/Kg",10.2 mm
same,Total diameter (tumor + leg),"Table 53, Day 21, iv weekly, 47-R 0.1 mg/Kg, Compound D 0.5 mg/Kg",11.2 mm
same,Total diameter (tumor + leg),"Table 53, Day 23, iv weekly, 47-R 0.1 mg/Kg, Compound D 0.5 mg/Kg",12.2 mm
same,Total diameter (tumor + leg),"Table 53, Day 35, iv weekly, 47-R 0.1 mg/Kg, Compound D 0.5 mg/Kg",18.0 mm
